Source: patent US20240298643A1, “BENZIMIDAZOLE COMPOUND OR SALT THEREOF, PREPARATION METHOD THEREFOR AND USE THEREOF, AND INSECTICIDE AND ACARICIDE AND USE THEREOF” (QINGDAO KANGQIAO PESTICIDES AND CHEMICALS GROUP CO., LTD., priority 2021, published 2024)
Some results were stated once for a whole list of compounds, not compound by compound.

Tested on: Tetranychus cinnabarinus
Test: acaricidal activity test, spraying kidney bean seedlings inoculated with mites
Format: in vivo
Settings: sprayed on kidney bean seedlings, living mites counted after 72 hours, 25° C.
Experimental: This test example tested the acaricidal activity of the compounds prepared above, in particular against Tetranychus cinnabarinus, and a specific test process was as follows: • (1) compounds to be tested were dissolved with acetone, and the resulting solution was diluted with a 0.1 wt % Tween 80 aqueous solution to a desired concentration (see test examples 1-A to 1-D below in detail) to prepare medicaments, with the acetone content of not more than 5 wt %; • (2) one real leaf was removed from kidney bean seedlings grown to two real leaves, and the number of mites inoculated was investigated 24 hours after inoculation of Tetranychus cinnabarinus (the number of Tetranychus cinnabarinus inoculated for each kidney bean seedling was 50-150). The whole plants of three kidney bean seedlings were separately sprayed with the medicaments prepared in the step (1) by using a hand-held sprayer (the spray amount was 0.5 mL per plant). After the treatment, the kidney bean seedlings were placed in a constant temperature observation room (25° C.) for observation, the number of living mites was investigated after 72 hours, and the lethality was calculated: Lethality (%)=(the number of mites inoculated−the number of living mites after the medicaments are sprayed)/the number of mites inoculated×100.

Measured: Lethality

CCS(=O)(=O)n1c(-c2cc([N+](=O)[O-])cc(C(F)(F)F)c2)nc2ccccc21 [Compound 1-235]
more than 90%: 6.25 mg/L, listed as compound 1-235 | 25 mg/L, listed as compound 1-235 | 100 mg/L, listed as compound 1-235

CCS(=O)(=O)n1c(-c2cc(Cl)cc(OC(F)(F)F)c2)nc2ccccc21 [Compound 1-239]
more than 90%: 6.25 mg/L, listed as compound 1-239 | 25 mg/L, listed as compound 1-239 | 100 mg/L, listed as compound 1-239

CCCS(=O)(=O)n1c(-c2cc(C(F)(F)F)cc(C(F)(F)F)c2)nc2ccccc21 [Compound 1-254]
more than 90%: 6.25 mg/L, listed as compound 1-254 | 25 mg/L, listed as compound 1-254 | 100 mg/L, listed as compound 1-254

CCCCS(=O)(=O)n1c(-c2cc(C(F)(F)F)cc(C(F)(F)F)c2)nc2ccccc21 [Compound 1-255]
more than 90%: 6.25 mg/L, listed as compound 1-255 | 25 mg/L, listed as compound 1-255 | 100 mg/L, listed as compound 1-255

CCS(=O)(=O)n1c(-c2cc(C(F)(F)F)cc(C(F)(F)F)c2)nc2cc(F)c(F)cc21 [Compound 1-257]
more than 90%: 6.25 mg/L, listed as compound 1-257 | 25 mg/L, listed as compound 1-257 | 100 mg/L, listed as compound 1-257

CCS(=O)(=O)n1c(-c2cc(C(F)(F)F)cc(C(F)(F)F)c2)nc2cc(Cl)c(Cl)cc21 [Compound 1-265]
more than 90%: 6.25 mg/L, listed as compound 1-265 | 25 mg/L, listed as compound 1-265 | 100 mg/L, listed as compound 1-265
